Literature values as cited in US20050238733A1, “Topical anesthesia of the urinary bladder” (priority 2000, published 2005).
Some entries share one result that the patent states for a list of compounds.

System: E. coli bacteria
Settings: E. coli growth response; cited from earlier work

CCN(CC)CC(=O)Nc1c(C)cccc1C [lidocaine]
concentration at which the drug is bactericidal: at least 2%

CCN(CC)CCOC(=O)c1ccc(N)cc1 [procaine]
concentration at which the drug is bactericidal: at least 2%
